Reference: PubChem BioAssay AID1347076 (National Center for Advancing Translational Sciences (NCATS), 2019)
Out of some 400,000 compounds screened, about 13,000 (3.2%) were called active. The inconclusive results got no clear call from the source; some entries with a clear call stand among them for comparison. Calls come from the whole dose curve; as a rule, active = well fitted cell-killing curve with a large enough effect; inconclusive = small, poorly fitted or top-dose-only effect, or effect the other way; inactive = flat fitted curve, though single readings scatter. Where the call is inconclusive, the potency comes from a doubtful curve fit.

experiment: qHTS assay for MDR1-selective chemotherapeutics: Primary screen using the drug-selected MDR subline cells KB-V1; conditions: KB-V1 MDR cells viability, CellTiter-Glo, 72 h; activity change, negative = cytotoxicity: at 46.1 µM (top of the series); note: nearly all actives have a fitted effect of over 60% in size
In short: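 qHTS viability screen in drug-selected KB-V1 MDR cells: 72 h compound treatment at 37 degrees C, ATP luminescence end point.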
% is set by controls: 0 for no effect and ±100 for the full control effect; potency is the fitted concentration of half-maximal effect.

Compound | Potency | activity change, negative = cytotoxicity
Cc1cc2n(n1)C(c1cn(-c3ccccc3)nc1C)Nc1ccccc1-2 (stereo not drawn) | inactive | –
Cc1ccccc1NC(=O)COC(=O)/C=C/c1cn(-c2ccccc2)nc1-c1cccnc1 | inactive | –
COC(=O)C1=CN(c2ccc(OC)cc2)C(N)=C(C#N)C1c1ccc(OC)cc1 (stereo not drawn) | inactive | –
CN(C)c1nc2c(c(=O)[nH]c(=O)n2C)n1CCOc1ccccc1 | inconclusive: 29.1 µM [cytotoxic, single point] | –
CCC(C)(C)NC(=O)CN(C(=O)CNS(=O)(=O)c1ccc(F)cc1)c1ccc2c(c1)OCCO2 | inconclusive: 9.2 µM [cytotoxic, partial curve] | –
CC(C)(C)NC(=O)CN(C(=O)C1CSC(=O)C1)c1ccc2c(c1)OCCO2 (stereo not drawn) | inconclusive: 11.6 µM [cytotoxic, partial curve] | –
COCCNC(=O)Cn1ncc2c(C)n(Cc3ccc(C)cc3)c(C)c2c1=O | inactive | –
Cc1ccc(C(=O)N(CC(=O)NC2CCCCC2)c2ccccc2C)s1 | inconclusive: 23.1 µM [cytotoxic, single point] | –
c1ccc(OCCCn2ccnc2)cc1 | inconclusive: 32.6 µM [rising, single point] | –
O=C1N=C(N2C=CC(=C3C=CNC=C3)C=C2)/C(=C/N=NC(=O)c2ccccc2O)S1 | inconclusive: 0.461 µM [rising, full curve, poor fit] | –
CCCOc1ccccc1C1Oc2nc(SC)nnc2-c2ccccc2N1C(C)=O (stereo not drawn) | inconclusive: 7.31 µM [cytotoxic, partial curve] | –
N#CC1=C(N)C2=CCCC[C@H]2[C@H](c2ccccc2)C1(C#N)C#N | inconclusive: 29.1 µM [cytotoxic, single point] | –
Cc1ccc(CN(Cc2ccco2)C(=O)c2oc3ccc(C)cc3c2C)cc1 | inactive | –
CCOC(=O)N1CCC(NC(=O)c2ccc3c(Cl)c4c(nc3c2)CCCC4)CC1 | inconclusive: 29.1 µM [cytotoxic, single point] | –
O=C(O)CCC(=O)Nc1ccccc1Oc1ccccc1 | inactive | –
CCOc1ccc(C(=O)c2cn(Cc3ccc(F)cc3)c3ccc(F)cc3c2=O)cc1 | inconclusive: 29.1 µM [cytotoxic, single point] | –
Cc1ccc(C)c(CNC(=O)c2cnc3sc(N4CCCC4)nn3c2=O)c1 | inactive | –
O=C(Nc1cccs1)Nc1c(F)c(F)c(F)c(F)c1F | inconclusive: 23.1 µM [cytotoxic, single point] | –
Fc1ccccc1CSc1ncnc2c1ncn2C1CCCO1 (stereo not drawn) | inconclusive: 23.1 µM [cytotoxic, single point] | –
O=C(COC(=O)c1ccc([N+](=O)[O-])cc1)Nc1ccccc1C(=O)NC1CC1 | inconclusive: 23.1 µM [rising, single point] | –
CCC1CCCCN1C(=S)NC1CCCCC1 (stereo not drawn) | inconclusive: 16.4 µM [cytotoxic, single point] | –
O=S(=O)(Nc1cccc(S(=O)(=O)N2CCCCCC2)c1)c1ccc(F)cc1F | – | inconclusive: -77.3%
O=C(COc1cccc(Cl)c1)Nc1cc(S(=O)(=O)N2CCOCC2)ccc1N1CCOCC1 | inactive | –
O=C(Nc1ccccc1F)c1ccc(CN2CCc3ccccc3C2)cc1 | active: 20.6 µM | –
CS(=O)(=O)N1CCN(c2nnc(-c3ccccc3)c3ccccc23)CC1 | inactive | –

Compound | Potency | activity change, negative = cytotoxicity
Cc1ccc(CNC(=O)C(=O)NCC(c2cccnc2)N2CCN(c3ccccc3F)CC2)cc1 (stereo not drawn) | inconclusive: 2.59 µM [cytotoxic, full curve] | –
Cc1nc(NCC(=O)c2c[nH]c3ccccc23)sc1C | inactive | –
CC(C)CCN(C(=O)c1csnn1)C(C(=O)NC1CCCC1)c1ccc(F)cc1 (stereo not drawn) | inconclusive: 3.66 µM [cytotoxic, full curve] | –
CCCN(CCC)S(=O)(=O)c1ccc(NC(=O)c2cc(C(=O)OC)cc([N+](=O)[O-])c2)cc1 | active: 10.3 µM | –
Cc1ccc2nsnc2c1S(=O)(=O)N1CCCC1C(=O)O (stereo not drawn) | inconclusive: 16.4 µM [rising, partial curve, poor fit] | –
COc1ccc(C(c2nnnn2C2CCCC2)N2CCC(C)CC2)c(OC)c1 (stereo not drawn) | inconclusive: 23.1 µM [cytotoxic, single point] | –
O=C(NC1CCCC1)C1C(c2ccccc2)=Nc2ccccc2N1C(=O)c1ccc(C(F)(F)F)cc1 (stereo not drawn) | inconclusive: 2.91 µM [cytotoxic, full curve] | –
OC1CCN(Cc2cccc(Oc3ccccc3)c2)CC1 | inactive | –
CCOC(=O)N1CCN(C(=O)c2ccc(Oc3ccc([N+](=O)[O-])cc3)cc2)CC1 | active: 7.31 µM | –
Cc1ccc(C(=O)Nc2nc(-c3ccccc3)ns2)cc1 | inactive | –
O=C(COC(=O)c1ccc2c(c1)OCO2)Nc1ccccc1F | inactive | –
Cc1oc2ncn(C)c(=O)c2c1C(=O)NCCCN(Cc1ccccc1)C(C)C | inactive | –
O=C(NCc1ccco1)C1CC(c2cc(C(F)(F)F)cc(C(F)(F)F)c2)=NO1 (stereo not drawn) | active: 10.3 µM | –
CC(C)(C)c1ccc(CN2N=C(/C=C/c3ccccc3)CCC2=O)cc1 | inactive | –
COc1ccc(CNC(=O)C2Cc3c(-c4ccc5c(c4)OCO5)ccnc3O2)cc1OC (stereo not drawn) | active: 9.2 µM | –
O=C(COC(=O)c1cncc(Br)c1)NCC12CC3CC(CC(C3)C1)C2 | inconclusive: 29.1 µM [rising, single point] | –
Cc1sc2ncnc(SCC(=O)NC3CCCC3)c2c1C | inconclusive: 8.2 µM [cytotoxic, partial curve] | –
COc1ccc(CCc2ccnc3ccccc23)cc1 | inconclusive: 29.1 µM [cytotoxic, single point] | –
COCc1cnc(C)nc1N | inconclusive: 13 µM [rising, partial curve] | –
COc1ccc(NC(=O)CCN2CCN(c3ccccc3F)CC2)c(OC)c1 | inconclusive: 5.8 µM [cytotoxic, partial curve, poor fit] | –
Cc1cc(C)c(S(C)(=O)=O)c(Oc2ccc(C(C)(C)C)cc2)n1 | active: 16.4 µM | –
O=C(C1CCN(S(=O)(=O)c2cccnc2)CC1)N1CCN(c2ccccc2Cl)CC1 | inconclusive: 14.6 µM [cytotoxic, partial curve] | –
CSc1ccc(-c2nc(CN3CCCCC3c3cccnc3)c(C)o2)cc1 (stereo not drawn) | inactive | –
CC1=CC(C)(C)Nc2ccc(OC(=O)CN3C(=O)c4ccccc4C3=O)cc21 | inactive | –
Cc1ccc(C)c(Cn2c3ccccc3c3cnn(CC(=O)NC(C)c4ccccc4)c(=O)c32)c1 (stereo not drawn) | inactive | –

Compound | Potency | activity change, negative = cytotoxicity
O=C(C(=Cc1ccccc1)c1ccccc1)c1ccccc1 | inconclusive: 20.6 µM [cytotoxic, partial curve, poor fit] | –
CC(C)CC(=O)NC(=S)Nc1ccc(S(=O)(=O)NC(C)(C)C)cc1 | active: 14.6 µM | –
COc1ccccc1/C=C/C(=O)OCC(=O)Nc1c(C)nn(-c2ccccc2)c1C | inactive | –
O=C(NCCc1ccc(F)cc1)C1CCC(=O)N(CC2CCCCC2)C1 (stereo not drawn) | inconclusive: 20.6 µM [cytotoxic, single point] | –
COc1cc(C(=O)Nc2ccc(-c3nnc(-c4ccco4)o3)cc2)cc(OC)c1OC | inconclusive: 3.66 µM [cytotoxic, full curve, poor fit] | –
CCOc1ccc2nc(SCc3ccc(F)cc3)sc2c1 | inconclusive: 18.4 µM [cytotoxic, single point] | –
Cc1ccc(S(=O)(=O)N2CCC(=O)N([C@H](COCc3ccc(Cl)cc3)C(C)C)CC2)cc1 | inconclusive: 2.59 µM [cytotoxic, partial curve, poor fit] | –
O=C(Cn1cnc2c(nnn2Cc2ccc(F)cc2)c1=O)N1CCCc2ccccc21 | active: 16.4 µM | –
COc1ccc(S(=O)(=O)N(CC(=O)Nc2cccnc2)c2ccc(C)cc2)cc1OC | inactive | –
O=C1OCC2=C1C(c1ccc3c(c1)OCO3)c1cc3c(cc1O2)OCO3 (stereo not drawn) | active: 1.46 µM | –
CCN(CC)NC(=S)Nc1ccccc1 | inactive | –
O=C(Nc1cc(Sc2nc3ccccc3s2)cc([N+](=O)[O-])c1)c1ccccc1 | inconclusive: 23.1 µM [cytotoxic, partial curve, poor fit] | –
O=C(Cc1ccccc1)NCCS(=O)(=O)N1CCN(c2cccc(Cl)c2)CC1 | inconclusive: 14.6 µM [cytotoxic, partial curve] | –
Clc1ccc(-c2nn3c(-c4ccccc4)nnc3s2)cc1 | inconclusive: 5.8 µM [cytotoxic, full curve] | –
CN(C)CC1CCC/C(=C/c2ccc(Cl)cc2)C1=O (stereo not drawn) | inconclusive: 29.1 µM [cytotoxic, single point] | –
CC(=NC1CCCCC1)C1=C(O)c2ccccc2C1=O | inconclusive: 20.6 µM [cytotoxic, partial curve] | –
CC(C)Cc1ccc(C(C)C(N)=NCCc2ccccc2)cc1 (stereo not drawn) | inconclusive: 29.1 µM [cytotoxic, single point] | –
Cc1noc(C)c1S(=O)(=O)N1CCCC(C(=O)N2CCC(C)CC2)C1 (stereo not drawn) | inactive | –
COc1cccc(=O)c2c(C)oc(C)c12 | inconclusive: 29.1 µM [cytotoxic, single point] | –
CC(C)CCn1cnc2c(cnn2-c2ccc(F)cc2)c1=O | inconclusive: 29.1 µM [cytotoxic, single point] | –
Cc1ccc(-n2nnc(-c3nsc(NC(=O)c4ccc(C)c(C)c4)n3)c2C)cc1 | inactive | –
COc1ccc(/C=N/NC(=O)c2ccc(COCC(F)(F)C(F)F)cc2)cc1 | inconclusive: 5.8 µM [cytotoxic, full curve] | –
Cc1cccc(C)c1NC(=O)CN(C)C(=O)c1cccc(S(=O)(=O)N2CCN(c3ccc(F)cc3)CC2)c1 | inconclusive: 6.51 µM [cytotoxic, partial curve] | –
